Literature values in patent publication US11459298B2, “Class of dicationic compounds as well as the preparative method and the use thereof” (WEST CHINA HOSPITAL, SICHUAN UNIVERSITY, priority 2018, dated 2022).
Some results were stated once for a whole list of compounds, not compound by compound.

Test system: human body
Conditions: after single administration, clinical use; cited from earlier work

## COc1ccc(C[C@@H]2c3cc(OC)c(OC)cc3CC[N@+]2(C)CCC(=O)OCCCCCOC(=O)CC[N@@+]2(C)CCc3cc(OC)c(OC)cc3[C@H]2Cc2ccc(OC)c(OC)c2)cc1OC [Cisatracurium, reference compound]
  duration of muscle relaxation / action time: 25 to 60 min
